From patent US9856220B2 (AbbVie Deutschland GmbH & Co. KG, priority 2011, dated 2018)

Tests used:
[1] = Determination of the microsomal half-life / microsomal clearance, rat liver microsomes; assay type: in vitro ADME; settings: 0.5 μM test substance, 0.25 mg of microsomal protein/ml, pH 7.4, 37° C.
Description: (§1) b) Determination of the Microsomal Half-Life:
(§2) The metabolic stability of the compounds of the invention was determined in the following assay.
(§3) The test substances were incubated in a concentration of 0.5 μM as follows:
(§4) 0.5 μM test substance are preincubated together with liver microsomes from different species (from rat, human or other species) (0.25 mg of microsomal protein/ml) in 0.05 M potassium phosphate buffer of pH 7.4 in microtiter plates at 37° C. for 5 min. The reaction is started by adding NADPH (1 mg/mL). After 0, 5, 10, 15, 20 and 30 min, 50 μl aliquots are removed, and the reaction is immediately stopped and cooled with the same volume of acetonitrile. The samples are frozen until analyzed. The remaining concentration of undegraded test substance is determined by MSMS. The half-life (T½) is determined from the gradient of the signal of test substance/unit time plot, it being possible to calculate the half-life of the test substance, assuming first order kinetics, from the decrease in the concentration of the compound with time. The microsomal clearance (mCl) is calculated from mCl=ln 2/T½/(content of microsomal protein in mg/ml)×1000 [ml/min/mg]

[2] = Determination of the microsomal half-life / microsomal clearance, human liver microsomes; assay type: in vitro ADME; settings: 0.5 μM test substance, 0.25 mg of microsomal protein/ml, pH 7.4, 37° C.
Description: as §1, §2, §3, §4

## CCn1cc(C(=O)N[C@@H](C)c2ccc(F)cc2)c2cc(OC)c(OC)cc2c1=O [Example 165, (S)-2-Ethyl-N-(1-(4-fluorophenyl)ethyl)-6,7-dimethoxy-1-oxo-1,2-dihydroisoquinoline-4-carboxamide]
[1]
  Rat mCl: ++ (<100 μl min^−1 mg^−1)
[2]
  Human mCl: ++ (<100 μl min^−1 mg^−1)
